Data taken from paper PMC7250844.
Results are given in words; binding and its absence hold for the method and conditions named. Binding seen in cells or lysates may run through a third protein. Some results given as binding are weak or reduced against the parent protein; the word gives no strength.

The chains behind the UniProt entries cited, without tags or fusion partners. Where a name states a change or a piece, a line headed by the entry shows the natural chain unless it says otherwise.
UniProt P19474: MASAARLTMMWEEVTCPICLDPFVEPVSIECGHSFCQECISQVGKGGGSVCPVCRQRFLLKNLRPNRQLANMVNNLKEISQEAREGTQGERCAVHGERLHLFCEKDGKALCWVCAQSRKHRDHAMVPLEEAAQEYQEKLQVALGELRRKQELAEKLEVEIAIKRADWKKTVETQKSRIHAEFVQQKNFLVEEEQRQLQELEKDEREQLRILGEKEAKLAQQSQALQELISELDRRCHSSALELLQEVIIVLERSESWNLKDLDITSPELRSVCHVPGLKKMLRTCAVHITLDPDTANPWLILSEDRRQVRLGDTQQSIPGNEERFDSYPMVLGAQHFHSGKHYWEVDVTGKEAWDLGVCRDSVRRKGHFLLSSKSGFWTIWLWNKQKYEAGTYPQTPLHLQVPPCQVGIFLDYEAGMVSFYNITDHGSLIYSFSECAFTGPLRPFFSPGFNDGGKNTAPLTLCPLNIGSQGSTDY
UniProt Q7L5N1: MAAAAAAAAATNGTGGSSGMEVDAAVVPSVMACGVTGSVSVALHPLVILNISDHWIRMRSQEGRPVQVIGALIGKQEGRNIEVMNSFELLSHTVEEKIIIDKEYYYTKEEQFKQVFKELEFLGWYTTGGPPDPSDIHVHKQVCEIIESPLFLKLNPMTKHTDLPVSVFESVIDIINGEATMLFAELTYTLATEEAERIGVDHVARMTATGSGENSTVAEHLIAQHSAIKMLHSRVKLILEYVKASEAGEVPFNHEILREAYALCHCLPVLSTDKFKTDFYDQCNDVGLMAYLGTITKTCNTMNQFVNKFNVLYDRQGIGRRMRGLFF

What was measured:
[1] = biological target: Flag-TRIM21 (human) (UniProt P19474); test: co-IP; Flag-TRIM21 expressed in HCT116 cells; MG132 for 6 h; lysis buffer 50 mM Tris-Cl pH 7.5, 0.1% NP-40, 0.1% Triton-100, 150 mM NaCl; Anti-Flag M2 Magnetic Beads overnight at 4 °C; associated CSN6 detected by western blotting
[2] = biological target: TRIM21, endogenous (human (endogenous in HEK293T)) (UniProt P19474); test: co-IP; endogenous proteins; HEK293T cells treated with MG132 for 6 h; TRIM21 antibody or control IgG overnight at 4 °C, then Protein A or Protein G beads; blotted with anti-TRIM21 and anti-CSN6
[3] = biological target: Flag-TRIM21 (human) (UniProt P19474); test: co-IP; HEK293T cells co-transfected with tagged constructs; MG132 for 6 h; Anti-Flag M2 Magnetic Beads overnight at 4 °C; blotted with anti-Flag, anti-HA or anti-Myc; with or without co-expressed CUL1 (Fig. 3b)

Row | binding [1] | binding [2] | binding [3] | Substance
1 | binds | binds | – | COP9 signalosome subunit 6 (CSN6), endogenous (from UniProt Q7L5N1 1-327)
2 | – | – | binds | HA-CSN6 (from UniProt Q7L5N1 1-327)
3 | – | – | binds | HA-CSN6-N terminal (1-174 aa) (from UniProt Q7L5N1 1-174) (domain or fragment)
4 | – | – | binds | Myc-CSN6 (from UniProt Q7L5N1 1-327)
